In the supplement of paper PMC12819154, “High-throughput peptide-centric local stability assay extends protein–ligand identification to membrane proteins, tissues and bacteria” (Nature Structural & Molecular Biology, 2025):
The list shows a part of the results. Most entries show no effect beyond the scatter of the controls.

By UniProt entry, the sequences of proteins in these tests, tags left out. Where a name states a change or a piece, a line headed by the entry shows the natural chain unless it says otherwise.
UniProt O89084: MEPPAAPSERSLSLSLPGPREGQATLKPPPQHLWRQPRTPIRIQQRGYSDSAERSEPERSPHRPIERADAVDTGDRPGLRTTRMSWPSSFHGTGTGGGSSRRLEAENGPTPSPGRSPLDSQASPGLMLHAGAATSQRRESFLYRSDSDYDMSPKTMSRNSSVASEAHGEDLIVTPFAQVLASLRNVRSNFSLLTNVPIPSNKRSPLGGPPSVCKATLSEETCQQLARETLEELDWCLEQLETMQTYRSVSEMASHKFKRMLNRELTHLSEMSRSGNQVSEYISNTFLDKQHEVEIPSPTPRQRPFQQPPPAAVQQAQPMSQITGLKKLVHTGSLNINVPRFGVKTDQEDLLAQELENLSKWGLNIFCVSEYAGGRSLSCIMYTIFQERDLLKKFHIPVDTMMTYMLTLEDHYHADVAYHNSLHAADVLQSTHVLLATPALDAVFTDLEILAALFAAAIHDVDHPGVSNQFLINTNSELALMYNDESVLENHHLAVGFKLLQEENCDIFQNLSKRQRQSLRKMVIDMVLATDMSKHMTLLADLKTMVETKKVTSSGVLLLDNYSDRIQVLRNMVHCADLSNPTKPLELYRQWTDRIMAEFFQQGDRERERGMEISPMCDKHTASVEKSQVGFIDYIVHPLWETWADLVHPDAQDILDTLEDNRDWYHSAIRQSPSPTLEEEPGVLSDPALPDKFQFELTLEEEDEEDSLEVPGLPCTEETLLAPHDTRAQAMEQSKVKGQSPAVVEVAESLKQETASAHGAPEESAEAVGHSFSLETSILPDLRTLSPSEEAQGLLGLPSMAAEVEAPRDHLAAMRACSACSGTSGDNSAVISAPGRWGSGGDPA
UniProt P10518: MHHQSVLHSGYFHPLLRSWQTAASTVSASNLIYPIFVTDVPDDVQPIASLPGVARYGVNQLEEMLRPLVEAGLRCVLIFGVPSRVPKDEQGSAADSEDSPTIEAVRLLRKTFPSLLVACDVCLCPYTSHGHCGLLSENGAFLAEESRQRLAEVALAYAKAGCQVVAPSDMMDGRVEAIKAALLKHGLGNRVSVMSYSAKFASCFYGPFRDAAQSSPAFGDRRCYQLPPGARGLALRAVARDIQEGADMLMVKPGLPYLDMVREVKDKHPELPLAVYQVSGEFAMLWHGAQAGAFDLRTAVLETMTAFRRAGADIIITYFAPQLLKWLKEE
UniProt P04370, whole entry: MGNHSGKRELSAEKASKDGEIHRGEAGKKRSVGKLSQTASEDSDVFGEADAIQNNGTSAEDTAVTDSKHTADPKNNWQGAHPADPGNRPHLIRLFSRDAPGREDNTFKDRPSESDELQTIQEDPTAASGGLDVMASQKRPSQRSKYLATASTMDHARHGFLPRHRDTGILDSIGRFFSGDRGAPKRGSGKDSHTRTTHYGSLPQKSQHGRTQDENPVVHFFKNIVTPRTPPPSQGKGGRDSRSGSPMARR
UniProt P05017, whole entry: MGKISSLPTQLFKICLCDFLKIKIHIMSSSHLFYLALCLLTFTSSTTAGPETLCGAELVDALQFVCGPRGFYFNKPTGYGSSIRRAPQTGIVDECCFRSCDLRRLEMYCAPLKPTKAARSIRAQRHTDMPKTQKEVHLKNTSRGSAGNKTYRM
UniProt P14483: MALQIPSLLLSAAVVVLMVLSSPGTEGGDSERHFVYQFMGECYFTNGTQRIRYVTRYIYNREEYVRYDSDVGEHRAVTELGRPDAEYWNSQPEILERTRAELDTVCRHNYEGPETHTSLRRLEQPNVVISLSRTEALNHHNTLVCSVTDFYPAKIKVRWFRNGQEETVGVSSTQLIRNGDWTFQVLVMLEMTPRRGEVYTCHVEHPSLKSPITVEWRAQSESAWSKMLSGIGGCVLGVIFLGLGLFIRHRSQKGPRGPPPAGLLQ
UniProt O89001: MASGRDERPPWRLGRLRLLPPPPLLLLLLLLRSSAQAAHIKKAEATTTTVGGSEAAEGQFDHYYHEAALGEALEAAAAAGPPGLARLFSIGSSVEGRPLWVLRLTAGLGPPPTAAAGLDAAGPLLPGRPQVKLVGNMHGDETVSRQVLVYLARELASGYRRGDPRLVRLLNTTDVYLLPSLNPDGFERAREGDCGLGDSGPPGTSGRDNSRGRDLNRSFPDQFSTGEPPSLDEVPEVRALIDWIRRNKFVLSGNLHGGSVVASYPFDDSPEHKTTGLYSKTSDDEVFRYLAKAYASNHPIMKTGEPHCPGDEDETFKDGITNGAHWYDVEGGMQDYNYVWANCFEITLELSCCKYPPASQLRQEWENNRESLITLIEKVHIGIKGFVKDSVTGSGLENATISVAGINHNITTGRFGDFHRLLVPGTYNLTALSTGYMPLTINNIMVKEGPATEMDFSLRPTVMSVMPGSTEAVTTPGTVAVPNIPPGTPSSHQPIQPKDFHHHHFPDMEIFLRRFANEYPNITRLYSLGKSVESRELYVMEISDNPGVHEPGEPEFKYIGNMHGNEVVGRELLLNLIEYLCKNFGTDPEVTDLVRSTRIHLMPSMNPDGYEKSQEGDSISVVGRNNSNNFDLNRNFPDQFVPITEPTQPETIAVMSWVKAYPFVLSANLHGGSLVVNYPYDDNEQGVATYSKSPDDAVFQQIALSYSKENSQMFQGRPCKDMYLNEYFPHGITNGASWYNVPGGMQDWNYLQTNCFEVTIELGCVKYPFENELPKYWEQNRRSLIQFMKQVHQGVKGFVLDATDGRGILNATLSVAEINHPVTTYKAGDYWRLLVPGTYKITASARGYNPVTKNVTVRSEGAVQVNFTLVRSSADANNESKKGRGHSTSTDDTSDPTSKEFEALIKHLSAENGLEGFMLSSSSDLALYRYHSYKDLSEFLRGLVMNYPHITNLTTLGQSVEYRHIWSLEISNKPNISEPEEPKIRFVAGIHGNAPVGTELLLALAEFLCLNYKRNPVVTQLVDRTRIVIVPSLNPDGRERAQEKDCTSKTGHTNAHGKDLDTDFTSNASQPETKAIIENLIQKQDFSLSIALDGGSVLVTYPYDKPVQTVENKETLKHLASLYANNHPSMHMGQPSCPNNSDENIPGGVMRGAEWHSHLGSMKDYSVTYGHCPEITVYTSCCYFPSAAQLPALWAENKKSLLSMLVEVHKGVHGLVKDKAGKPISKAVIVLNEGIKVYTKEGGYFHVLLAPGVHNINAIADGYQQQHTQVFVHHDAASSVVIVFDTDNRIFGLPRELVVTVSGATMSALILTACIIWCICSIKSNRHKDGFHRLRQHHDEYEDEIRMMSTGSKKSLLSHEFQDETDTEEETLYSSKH
UniProt P00186: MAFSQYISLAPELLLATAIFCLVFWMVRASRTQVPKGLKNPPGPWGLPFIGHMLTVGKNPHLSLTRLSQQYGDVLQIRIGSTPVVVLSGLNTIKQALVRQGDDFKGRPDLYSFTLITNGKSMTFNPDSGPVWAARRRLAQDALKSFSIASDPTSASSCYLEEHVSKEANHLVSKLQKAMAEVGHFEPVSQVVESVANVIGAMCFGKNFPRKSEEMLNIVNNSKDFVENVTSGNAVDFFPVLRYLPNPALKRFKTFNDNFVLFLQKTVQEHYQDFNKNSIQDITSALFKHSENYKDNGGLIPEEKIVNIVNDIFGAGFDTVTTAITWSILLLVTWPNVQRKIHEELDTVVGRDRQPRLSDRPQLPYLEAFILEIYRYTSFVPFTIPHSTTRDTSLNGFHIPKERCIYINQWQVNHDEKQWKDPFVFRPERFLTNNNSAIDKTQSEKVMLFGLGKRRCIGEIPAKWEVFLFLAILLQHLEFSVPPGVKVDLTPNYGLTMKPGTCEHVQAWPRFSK
UniProt O88962: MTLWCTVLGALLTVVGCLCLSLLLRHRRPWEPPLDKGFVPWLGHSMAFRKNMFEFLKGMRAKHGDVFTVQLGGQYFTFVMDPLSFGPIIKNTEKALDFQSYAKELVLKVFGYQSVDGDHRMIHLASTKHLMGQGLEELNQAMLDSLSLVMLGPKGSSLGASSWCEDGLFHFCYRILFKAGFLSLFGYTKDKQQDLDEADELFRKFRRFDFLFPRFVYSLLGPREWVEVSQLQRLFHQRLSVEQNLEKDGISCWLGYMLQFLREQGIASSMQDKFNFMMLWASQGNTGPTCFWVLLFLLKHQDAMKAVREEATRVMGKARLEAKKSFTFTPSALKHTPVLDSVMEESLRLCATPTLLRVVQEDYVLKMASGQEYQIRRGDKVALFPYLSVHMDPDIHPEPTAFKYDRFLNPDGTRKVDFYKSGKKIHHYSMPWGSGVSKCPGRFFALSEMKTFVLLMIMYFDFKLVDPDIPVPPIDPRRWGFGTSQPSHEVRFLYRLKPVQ
UniProt P04104: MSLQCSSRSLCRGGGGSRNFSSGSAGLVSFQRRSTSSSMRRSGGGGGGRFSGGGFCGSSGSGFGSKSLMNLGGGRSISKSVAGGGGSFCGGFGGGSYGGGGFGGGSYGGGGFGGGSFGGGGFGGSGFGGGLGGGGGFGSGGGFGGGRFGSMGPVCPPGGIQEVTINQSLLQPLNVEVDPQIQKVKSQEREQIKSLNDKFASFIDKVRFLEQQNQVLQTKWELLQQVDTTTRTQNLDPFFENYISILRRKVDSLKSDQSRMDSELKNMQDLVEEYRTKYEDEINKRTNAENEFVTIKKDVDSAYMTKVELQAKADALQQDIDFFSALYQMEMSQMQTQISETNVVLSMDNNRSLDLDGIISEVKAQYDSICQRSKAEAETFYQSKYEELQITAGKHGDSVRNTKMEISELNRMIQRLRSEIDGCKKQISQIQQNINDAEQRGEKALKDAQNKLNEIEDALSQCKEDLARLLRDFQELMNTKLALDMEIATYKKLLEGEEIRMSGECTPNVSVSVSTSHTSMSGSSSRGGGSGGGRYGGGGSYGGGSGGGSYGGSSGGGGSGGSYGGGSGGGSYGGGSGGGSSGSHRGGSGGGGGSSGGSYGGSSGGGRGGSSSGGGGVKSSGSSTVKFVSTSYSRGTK
UniProt O89017: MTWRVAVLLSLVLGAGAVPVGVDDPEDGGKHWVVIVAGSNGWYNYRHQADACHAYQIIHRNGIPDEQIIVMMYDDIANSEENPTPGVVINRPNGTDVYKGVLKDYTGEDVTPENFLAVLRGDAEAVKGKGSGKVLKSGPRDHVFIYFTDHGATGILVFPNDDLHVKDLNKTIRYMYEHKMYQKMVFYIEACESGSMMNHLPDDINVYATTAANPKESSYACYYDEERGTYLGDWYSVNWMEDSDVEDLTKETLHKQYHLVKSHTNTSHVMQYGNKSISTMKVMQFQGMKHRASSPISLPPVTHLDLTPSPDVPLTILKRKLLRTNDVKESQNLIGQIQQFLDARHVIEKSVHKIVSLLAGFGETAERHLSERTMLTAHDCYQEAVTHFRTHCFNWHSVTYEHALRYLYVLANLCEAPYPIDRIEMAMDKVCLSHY
UniProt P0DN34: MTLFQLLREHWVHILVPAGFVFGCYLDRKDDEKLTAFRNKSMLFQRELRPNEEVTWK

The targets below were run with CN[C@@H]1C[C@H]2O[C@@](C)([C@@H]1OC)n1c3ccccc3c3c4c(c5c6ccccc6n2c5c31)C(=O)NC4 [staurosporine] (assay: log2 fold change of tryptic peptide abundance, ligand vs vehicle (limited proteolysis) (log2 ratio); higher = more trypsin-susceptible (destabilized)). Settings: ligand concentration: 20 uM; sample: mouse liver crude lysate; replicate design: treated separately.

Row | Target | log2 fold change
1 | UniProt O89084 (peptide sequence: IMAEFFQQGDRER, peptide start residue: 565) | -0.22
2 | UniProt P10518 (peptide sequence: LAEVALAYAK, peptide start residue: 150) | 0.319
3 | UniProt P04370 (peptide sequence: YLATASTMDHAR, peptide start residue: 146) | 0.122
4 | UniProt P05017 (peptide sequence: GFYFNKPTGYGSSIRR, peptide start residue: 70) | 0.316
5 | UniProt P14483 (peptide sequence: YDSDVGEHR, peptide start residue: 67) | -0.295
6 | UniProt O89001 (peptide sequence: TSDDEVFR, peptide start residue: 281) | -0.281
7 | UniProt P00186 (peptide sequence: YTSFVPFTIPHSTTR, peptide start residue: 376) | -0.255
8 | UniProt O88962 (peptide sequence: GFVPWLGHSMAFR, peptide start residue: 37) | 0.287
9 | UniProt P04104 (peptide sequence: YEDEINKR, peptide start residue: 185) | -0.205
10 | UniProt O89017 (peptide sequence: HQADACHAYQIIHR, peptide start residue: 47) | 0.0647
11 | UniProt P0DN34 (peptide sequence: TLFQLLR, peptide start residue: 2) | 0.241
